In the supplement of paper PMC6690932:
Several values for one entry are separate records, joined by “and”; a condition that tells them apart may be missing. Equal entries are not always repeated. ± gives the standard deviation of the averaged measurements. This is one part of the list. Repeats are few or missing, and single values can be far off.

What follows are molecules tested on HeLa (assay: lysosomal-METRIQ red/green fluorescence ratio relative to DMSO (ratio to DMSO); higher = higher lysosomal activity / lysosomal biogenesis). Details: 10 µM; 12 h.

Compound	lysosomal-METRIQ red/green fluorescence ratio
O=C(Nc1cccc(NC(=O)c2cccc(O)c2O)c1)c1cccc(O)c1O	1.09
Nc1[nH]nc2nnc(-c3c(-c4ccccc4)nn4ccccc34)cc12 [ERK inhibitor II]	0.938
C[S+]([O-])c1ccc(-c2nc(-c3ccc(F)cc3)c(-c3ccncc3)[nH]2)cc1 (stereo unspecified)	1.2
COc1cc2nccc(Oc3ccc(NC(=S)NC(=O)c4ccccc4C)cc3)c2cc1OC [PDGF receptor tyrosine kinase inhibitor V]	1
C[C@]1(O)C[C@@H](c2nc(-c3ccc4ccc(-c5ccccc5)nc4c3)c3c(N)nccn32)C1	0.909
COc1ccc(OC)c2c(=S)c3ccccc3[nH]c12	1.05
O=c1cc(N2CCOCC2)oc2c(-c3ccccc3)cccc12	0.875 and 1
CCCC[C@@H](C)/C=C(C)/C=C(\C)C(=O)NC1=C[C@@](O)(/C=C/C=C/C=C/C(=O)NC2=C(O)CCC2=O)[C@@H]2O[C@@H]2C1=O [Manumycin A]	1
O=C(Nc1ccc([N+](=O)[O-])cc1O)Nc1ccccc1Br	1
NC(=O)NO [Hydroxyurea]	1
COc1cc2ncc(-c3ccccc3)nc2cc1OC	0.971 ± 0.14
CO[C@@H]1[C@H](OC(=O)/C=C/C=C/C=C/C=C/C(=O)O)CC[C@]2(CO2)[C@H]1[C@@]1(C)O[C@@H]1CC=C(C)C [Fumagillin]	1
CC1=C(/C=C/C(C)=C/C=C/C(C)=C/C(=O)O)C(C)(C)CCC1 [tretinoin]	0.818
COC(=O)CNC(=O)C(=O)OC [Dimethyloxalylglycine]	1.17
C=CC[C@@H]1/C=C(\C)C[C@H](C)C[C@H](OC)[C@H]2O[C@@](O)(C(=O)C(=O)N3CCCC[C@H]3C(=O)O[C@H](/C(C)=C/[C@@H]3CC[C@@H](O)[C@H](OC)C3)[C@H](C)[C@@H](O)CC1=O)[C@H](C)C[C@@H]2OC	1.07
NC(=O)c1ccc2nc(-c3ccc(Oc4ccc(Cl)cc4)cc3)[nH]c2c1 [Chk2 inhibitor II]	1.09
O=C(O)c1ccccc1Nc1ccccc1 [N-phenylanthranilic acid]	1
COc1c(C=O)c(O)cc2c1C(=O)c1ccccc1C2=O [Damnacanthal]	1.16 ± 0.14

Part of the list above in a different format.
Compound,lysosomal-METRIQ red/green fluorescence ratio
COc1ccc(OC)c2c(=S)c3ccccc3[nH]c12,1.05
O=C(Nc1ccc([N+](=O)[O-])cc1O)Nc1ccccc1Br,1

(list continues)

Compound	lysosomal-METRIQ red/green fluorescence ratio
COc1cc(O)c(CC=C(C)C)c(O)c1C(=O)/C=C/c1ccc(O)cc1 [Xanthohumol]	0.87
O=C(NCCCCCCNC(=O)ON=C1CCCCC1)ON=C1CCCCC1	1
CNC(=O)c1cc(Oc2ccc(NC(=O)Nc3ccc(Cl)c(C(F)(F)F)c3)cc2)ccn1 [sorafenib]	1.27
O=c1[nH]c(NCc2ccccc2)nc2nc[nH]c12 [Benzylguanine]	0.87
COc1cccc(-c2cc(=O)c3ccccc3o2)c1N	0.938 and 1.07
Oc1c2ccccc2c2c3c(cccc13)N=N2	0.969 ± 0.044
O=c1oc2c(O)c(O)cc3c(=O)oc4c(O)c(O)cc1c4c23 [Ellagic acid]	1
C[C@@H]1C[C@H]2O[C@@H]2/C=C\C=C\C(=O)Cc2c(Cl)c(O)cc(O)c2C(=O)O1 [Radicicol]	0.867
Cc1cc(C=C2C(=O)C=CC2=O)cc(C)c1O	0.636
CSc1ccc(/C=C2/C(C)=C(CC(=O)O)c3cc(F)ccc32)cc1 [Sulindac sulfide]	1.05
O=C1C(SCCO)=C(SCCO)C(=O)c2ccccc21	0.68
C[n+]1cc2c3c(ccc2c2ccc4cc5c(cc4c21)OCO5)OCO3 [Sanguinarine]	0.44
CC1=Nc2ccc(Cl)cc2S(=O)(=O)N1 [Diazoxide]	1.04
O=C1Cc2c([nH]c3ccc(Br)cc23)-c2ccccc2N1 [Kenpaullone]	1.7 ± 0.42
N#C/C(=C\c1ccc(O)c(O)c1)C(=O)NCc1ccccc1	1.06 ± 0.015
Cc1cccc(-c2nn3c(c2-c2ccnc4ccc(C(N)=O)cc24)CCC3)n1	0.955
NC(=O)c1ccccc1 [Benzamide]	1.13
CC(C)C(=O)Nc1ccc([N+](=O)[O-])c(C(F)(F)F)c1 [Flutamide]	0.968
